According to article PMC10584935:
Results are given in words; binding and its absence hold for the method and conditions named. Some results given as binding are weak or reduced against the parent protein; the word gives no strength. Sequences can lack the tags named with a protein.

Molecular target: MAB-10 protein fused to the GAL4 DNA-binding domain (C. elegans) (UniProt Q22002)
Experiment: two-hybrid; yeast Y2HGold, pGADT7 and pGBKT7 fusions; spot assay on SD/-Leu/-Trp/-His/-Ade plates with 10 mM 3-AT, 2 days at 30 °C

- binding: binds
B1: MAB-10 protein fused to the GAL4 DNA-binding domain (protein, UniProt Q22002 1-582)
chain: MSSSSSSSLPTSSASTTTSSITSRPSASHHLESILSSSSSSPSILSSLTTQSTSSIPTSSSSSSQRQSTSNADRPVSPKPMPTPTTLSEWQLLAVLSKANLVQYYDVFIAQGGDDINQIMACEEREFLEIMNLVGMLPKPLHVRRMQRALAEYSQDQTAFNLAALQQIGPPPPLNYTPAGTDPMALLLPGIAAATSPKFPSLRFLSQLSSVAEKVSTPSEAADTSSSSPSLNLNTTSSNSVPLAFKFSTPLLESLASDQQSSSTSSVRSVLPSTSSNTSHPELPAGILPATTTNVSAAVPPPSSRATANVFSGNSIGLNFSGAASVTRHLVVPPSSTSIQQPSTSFGRSSSITGQEKEGSSSPFLGVGYSQPYGNDFVSLGDFDPNNPSLTENPTLSTAQISRLAECALAASKNLPPLPPRLVQNKKRVSKEVIELLKCSPATPSMIHAFRKYSAIYGRFDTKRKPHKVLTLHETTVNEAAAQLCLLVPSLLTRRDELFPLARQIVKDAGYNYAKSRKRPCDPADLHSPISSPGNSPPPQESEFDEQPSSSSGAFKEEERPPIPPEAWAAIIEKMKGELPES
